Data as given in the supplement of paper PMC10331698.
± gives the standard deviation of the averaged measurements. Small differences around the control level are noise.

How the values were obtained:
Experiment in all cases: level (log10 ratio to DMSO vehicle control); higher = higher biomarker level / cell amount than vehicle control
[1] = compound: CN(C(=O)C(F)(F)C(F)(F)C(F)(F)F)[Si](C)(C)C [N-Methyl-N-trimethylsilylheptafluorobutyramide]; settings: 2200 nM; in DMSO
Method: (§1)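 BioMAP Diversity Plus panel of 12 human primary cell co-culture systems (3C, 4H, LPS, SAg, BT, BF4T, BE3C, CASM3C, HDF3CGF, KF3CT, MyoF, Mphg). Compounds were added 1 h before stimulation and left for 24 h (MyoF 48 h; BT 72 h for soluble read-outs or 6 d for IgG). Biomarkers were read by ELISA, cytotoxicity by SRB, PBMC viability and proliferation by Alamar Blue. Each well value was divided by the mean of 8 DMSO control wells on the same plate and log10 transformed; duplicate blinded samples were tested at 4 concentrations.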

Perfluoropentanoic acid = compound: O=C(O)C(F)(F)C(F)(F)C(F)(F)C(F)(F)F [Perfluoropentanoic acid]; settings: in DMSO
Method: as §1

[2] = compound: O=C(O)C(F)(F)C(F)(F)C(F)(F)C(F)(F)C(F)(F)C(F)(F)C(F)(F)C(F)(F)C(F)(F)C(F)F [11-H-Perfluoroundecanoic acid]; settings: 2200 nM; in DMSO
Method: as §1

[3] = compound: NCC(F)(F)C(F)(F)C(F)(F)C(F)(F)C(F)(F)C(F)(F)C(F)(F)F [1H,1H-Perfluorooctylamine]; settings: 2200 nM; in DMSO
Method: as §1

[4] = compound: FC(F)(F)C(F)(F)C(F)(F)C(F)(F)C(F)(F)C(F)(F)CC1CO1 [3-(Perfluorohexyl)-1,2-epoxypropane]; settings: 2200 nM; in DMSO
Method: as §1

Heptafluorobutyramide = compound: NC(=O)C(F)(F)C(F)(F)C(F)(F)F [Heptafluorobutyramide]; settings: 2200 nM; in DMSO
Method: as §1

Perfluoroheptanoic acid = compound: O=C(O)C(F)(F)C(F)(F)C(F)(F)C(F)(F)C(F)(F)C(F)(F)F [Perfluoroheptanoic acid]; settings: in DMSO
Method: as §1

1H,1H-Heptafluorobutanol = compound: OCC(F)(F)C(F)(F)C(F)(F)F [1H,1H-Heptafluorobutanol]; settings: 2200 nM; in DMSO
Method: as §1

[5] = compound: CC(C)(C)C(=O)CC(=O)C(F)(F)C(F)(F)C(F)(F)F [(Heptafluorobutanoyl)pivaloylmethane]; settings: 2200 nM; in DMSO
Method: as §1

[6] = compound: CCN(CCO)S(=O)(=O)C(F)(F)C(F)(F)C(F)(F)C(F)(F)C(F)(F)C(F)(F)C(F)(F)C(F)(F)F [N-Ethyl-N-(2-hydroxyethyl)perfluorooctanesulfonamide]; settings: in DMSO
Method: as §1

[7] = compound: OCCC(F)(F)C(F)(F)C(F)(F)C(F)(F)C(F)(F)C(F)(F)F [6:2 Fluorotelomer alcohol]; settings: 2200 nM; in DMSO
Method: as §1

[8] = compound: O=C(O)C(F)(F)C(F)(F)C(F)(F)OC(F)(F)F [Perfluoro(4-methoxybutanoic) acid]; settings: 2200 nM; in DMSO
Method: as §1

[9] = compound: Cc1ccc(S(=O)(=O)OCC(F)(F)C(F)(F)C(F)(F)C(F)(F)C(F)(F)C(F)F)cc1 [1H,1H,7H-Perfluoroheptyl 4-methylbenzenesulfonate]; settings: 2200 nM; in DMSO
Method: as §1

[10] = compound: O=S(=O)(O)CCC(F)(F)C(F)(F)C(F)(F)C(F)(F)C(F)(F)C(F)(F)C(F)(F)C(F)(F)F [8:2 Fluorotelomer sulfonic acid]; settings: in DMSO
Method: as §1

Octafluoroadipic acid = compound: O=C(O)C(F)(F)C(F)(F)C(F)(F)C(F)(F)C(=O)O [Octafluoroadipic acid]; settings: 2200 nM; in DMSO
Method: as §1

1-(Perfluorohexyl)octane = compound: CCCCCCCCC(F)(F)C(F)(F)C(F)(F)C(F)(F)C(F)(F)C(F)(F)F [1-(Perfluorohexyl)octane]; settings: in DMSO
Method: as §1

Test System	level (log10) [1]	level (log10) (Perfluoropentanoic acid; 2200 nM)	level (log10) (Perfluoropentanoic acid; 6700 nM)	level (log10) (Perfluoropentanoic acid; 20000 nM)	level (log10) (Perfluoropentanoic acid; 60000 nM)	level (log10) [2]	level (log10) [3]	level (log10) [4]	level (log10) (Heptafluorobutyramide)	level (log10) (Perfluoroheptanoic acid; 2200 nM)	level (log10) (Perfluoroheptanoic acid; 6700 nM)	level (log10) (Perfluoroheptanoic acid; 20000 nM)	level (log10) (Perfluoroheptanoic acid; 60000 nM)	level (log10) (1H,1H-Heptafluorobutanol)	level (log10) [5]	level (log10) ([6]; 2200 nM)	level (log10) ([6]; 6700 nM)	level (log10) ([6]; 20000 nM)	level (log10) [7]	level (log10) [8]	level (log10) [9]	level (log10) ([10]; 2200 nM)	level (log10) ([10]; 6700 nM)	level (log10) ([10]; 20000 nM)	level (log10) ([10]; 60000 nM)	level (log10) (Octafluoroadipic acid)	level (log10) (1-(Perfluorohexyl)octane; 740 nM)	level (log10) (1-(Perfluorohexyl)octane; 2200 nM)
CASM3C:LDLR	0.022 ± 0.014	-0.0145 ± 0.005	-0.0085 ± 0.0064	-0.0045 ± 0.0078	-0.0095 ± 0.025	-0.005 ± 0.02	-0.0225 ± 0.0064	0.0195 ± 0.032	0.0215 ± 0.028	0.0395 ± 0.04	0.0175 ± 0.0092	0.012 ± 0.016	0.0125 ± 0.039	-0.007 ± 0.017	-0.0045 ± 0.012	0.0005 ± 0.025	-0.076 ± 0.0057	-0.223 ± 0.021	0.047 ± 0.045	0.015 ± 0.04	0.0255 ± 0.053	0.006 ± 0.023	-0.0005 ± 0.0064	0.0135 ± 0.013	0.0415 ± 0.026	-0.015 ± 0.023	0.025 ± 0.044	0.008 ± 0.0085
3C:CCL2/MCP-1	0.0065 ± 0.028	-0.0025 ± 0.023	-0.0105 ± 0.00071	0.0005 ± 0.0021	0.0215 ± 0.019	0.007 ± 0.0099	0.007 ± 0.017	0.027 ± 0.028	0.0105 ± 0.035	0.0335 ± 0.0064	0.0015 ± 0.015	-0.009 ± 0.013	0.032 ± 0.045	0.005 ± 0.0085	-0.0015 ± 0.025	-0.0055 ± 0.052	-0.032 ± 0.016	-0.145 ± 0.032	0.0115 ± 0.066	0.016 ± 0.047	0.0205 ± 0.021	0.0045 ± 0.025	-0.01 ± 0.0085	-0.0335 ± 0.021	-0.0185 ± 0.005	-0.001 ± 0.0071	0.013 ± 0.027	0.0085 ± 0.00071
CASM3C:Serum Amyloid A	-0.0005 ± 0.04	0.006 ± 0.03	-0.003 ± 0.0071	-0.013 ± 0.011	-0.0045 ± 0.033	0.019	0.0185 ± 0.033	0.0235 ± 0.064	0.0095 ± 0.033	0.039 ± 0.041	-0.006 ± 0.021	-0.013 ± 0.04	0.022 ± 0.082	-0.018 ± 0.0014	0 ± 0.0028	-0.029 ± 0.031	0.0875 ± 0.037	0.129 ± 0.042	0.0245 ± 0.079	-0.0035 ± 0.023	0.0265 ± 0.039	0.0285 ± 0.012	0.0195 ± 0.0064	0.0475 ± 0.025	0.096 ± 0.0042	-0.016 ± 0.089	0.0115 ± 0.064	-0.023 ± 0.017
HDF3CGF:TIMP-2	-0.01 ± 0.0028	-0.003 ± 0.041	0.009 ± 0.024	-0.0155 ± 0.018	-0.0025 ± 0.011	-0.0735 ± 0.021	-0.028 ± 0.037	0 ± 0.0042	-0.0055 ± 0.044	-0.0245 ± 0.011	-0.011 ± 0.018	-0.012 ± 0.017	0.014 ± 0.0085	-0.0045 ± 0.032	-0.005 ± 0.03	0.062 ± 0.042	0.136 ± 0.0057	0.108 ± 0.0071	0.0215 ± 0.0078	-0.001 ± 0.034	-0.049 ± 0.0028	0.0255 ± 0.061	-0.003 ± 0.016	-0.023 ± 0.016	-0.0475 ± 0.022	0.0025 ± 0.03	-0.0305 ± 0.063	0.005 ± 0.037
BF4T:IL-1alpha	0.0155 ± 0.023	0.008 ± 0.02	-0.016 ± 0.0085	-0.005 ± 0.0071	0.0155 ± 0.046	0.0405 ± 0.05	-0.0085 ± 0.021	0.012 ± 0.0014	0.0135 ± 0.019	0.003 ± 0.0028	-0.0085 ± 0.023	-0.0015 ± 0.005	0.013 ± 0.0099	-0.002 ± 0.031	0.008 ± 0.023	0.023 ± 0.023	0.008 ± 0.016	-0.0175 ± 0.015	0.005 ± 0.0085	0.01 ± 0.02	0.0185 ± 0.047	0.0095 ± 0.021	0.004 ± 0.016	-0.01 ± 0.014	0.0065 ± 0.018	0.0215 ± 0.015	0.0225 ± 0.03	-0.002 ± 0.0057
SAg:CXCL8/IL-8	-0.006 ± 0.034	0.014 ± 0.035	-0.012 ± 0.041	-0.018 ± 0.044	-0.013 ± 0.088	0.029 ± 0.041	0.0005 ± 0.053	0.0075 ± 0.022	0.027 ± 0.04	0.0335 ± 0.00071	0.008 ± 0.011	0.0115 ± 0.0078	0.0715 ± 0.043	0.0405 ± 0.063	-0.031 ± 0.16	0.038 ± 0.047	0.0095 ± 0.025	-0.167 ± 0.03	0.0235 ± 0.049	0.0295 ± 0.013	0.017 ± 0.04	-0.013 ± 0.05	-0.0075 ± 0.076	-0.009 ± 0.014	0.071 ± 0.044	0.023 ± 0.031	0.0065 ± 0.046	0.0045 ± 0.016
LPS:CD62E/E-Selectin	0.0295 ± 0.028	0.0015 ± 0.011	0.01 ± 0.0057	-0.004 ± 0.0071	0.015 ± 0.018	0.0105 ± 0.023	0.0105 ± 0.05	-0.0025 ± 0.029	-0.0075 ± 0.023	0.0105 ± 0.019	-0.009 ± 0.0028	0 ± 0.017	0.01	0.0005 ± 0.0092	0.0195 ± 0.005	0.019 ± 0.025	0.071 ± 0.02	0.073 ± 0.0042	0.009 ± 0.037	-0.01 ± 0.033	0.0285 ± 0.035	0.0295 ± 0.06	0.0235 ± 0.06	0.033 ± 0.02	0.082 ± 0.025	0.0035 ± 0.0021	-0.018 ± 0.073	0.0005 ± 0.042
KF3CT:PAI-I	0.004 ± 0.0099	0.001 ± 0.0099	0.0005 ± 0.021	-0.003	0.004 ± 0.0057	0.002 ± 0.042	-0.004 ± 0.0099	0.0155 ± 0.04	0.0085 ± 0.00071	0.017 ± 0.02	-0.043 ± 0.016	-0.0355 ± 0.012	-0.013 ± 0.068	0.005 ± 0.013	-0.0135 ± 0.012	-0.0255 ± 0.013	-0.0995 ± 0.011	-0.193 ± 0.014	-0.0025 ± 0.0035	0.0015 ± 0.005	0.027 ± 0.0028	0.0015 ± 0.0064	-0.0065 ± 0.022	-0.029 ± 0.014	-0.0255 ± 0.019	0.007 ± 0.0099	0.01 ± 0.025	0.0145 ± 0.0035
